Assay results reported in paper PMC4669759.
These are yes or no findings as the source states them, for the method shown. Some entries that bind do so weakly or less than the wild type. One block for each binder: values may come before it.

Columns and labels:
[1] = target: eGFP-BCL-2, P10415; assay: live-cell redistribution imaging (mCherry-BH3 protein at mitochondria); T-REx-293 cells stably expressing eGFP-anti-apoptotic and mCherry-BH3-only fusion proteins from a bicistronic module; spinning disk confocal imaging; ratio of mitochondrial to cytoplasmic mCherry after ABT-737, A-1210477 or DMSO; conditions: remark: other sources report otherwise
[2] = target: GAL4DBD–MCL-1, Q07820; assay: two-hybrid; mammalian two-hybrid in HeLa cells stably expressing a GAL4-luciferase reporter; bait (GAL4DBD) and prey (VP16AD) from one plasmid; A-1210477 for 24 h; luciferase (ONE-Glo), percent of complex remaining relative to untreated controls; conditions: remark: other sources report otherwise

binding [1]: binds
B1: mCherry-BAD, Q92934 1-168 (protein)
chain: MFQIPEFEPSEQEDSSSAERGLGPSPAGDGPSGSGKHHRQAPGLLWDASHQQEQPTSSSHHGGAGAVEIRSRHSSYPAGTEDDEGMGEEPSPFRGRSRSAPPNLWAAQRYGRELRRMSDEFVDSFKKGLPRPKSAGTATQMRQSSSWTRVFQSWWDRNLGRGSSAPSQ

binding [2]: binds
B2: VP16AD–NOXA, Q13794 1-54 (protein)
chain: MPGKKARKNAQPSPARAPAELEVECATQLRRFGDKLNFRQKLLNLISKLFCSGT
